We go through two molecules from article PMC7430634, “Inactivation of the dimeric RappLS20 anti-repressor of the conjugation operon is mediated by peptide-induced tetramerization” (Nucleic Acids Research, 2020).

Results are given in words; binding and its absence hold for the method and conditions named. A result given as binding can be weak or reduced; the word gives no strength.

Experiment [1] addresses T1, 6-FAM-Phr*_(pLS20) (GQKGMY with N-terminal fluorescein) (Bacillus subtilis plasmid pLS20).
T1 sequence (peptide, fluorescein (6-FAM) label on the N-terminus): GQKGMY
As to the kind of experiment: fluorescence polarisation; direct titration: Rap_(pLS20) varied 0.1–100 μM, 50 nM 6-FAM-Phr*_(pLS20); 20 mM Tris pH 7.5, 150 mM NaCl, 1 mM DTT, 0.01% Triton X-100; 25°C; both purified. (Fluorescence polarisation rises when a labelled molecule tumbles more slowly, as on binding a larger partner.)

The target is the same in experiment [2]. Put plainly: fluorescence polarisation; equilibrium competition: native Phr*_(pLS20) 0.6–1250 μM against 10 μM Rap_(pLS20) and 50 nM 6-FAM-Phr*_(pLS20); 20 mM Tris pH 7.5, 150 mM NaCl, 1 mM DTT, 0.01% Triton X-100; 25°C; both purified.
The target of experiment [3] is Rap_(pLS20) (Bacillus subtilis plasmid pLS20). Put plainly: crystal structure; Rap_(pLS20)/Phr*_(pLS20) complex, peptide added at 1:5 (Rap:Phr*), space group C2, four protein molecules in the asymmetric unit; 2.5% PEG8K, 8% ethylene glycol, 0.1 M MES pH 6.8, 18°C; both purified.

Regarding “Rap_(pLS20) (Bacillus subtilis plasmid pLS20)”, the binding entry in experiment [1] and in experiment [2] was “binds” throughout.
Consider QKGMY [Phr*_(pLS20) peptide (QKGMY)], for which, in experiment [3], the binding entry is “binds”.
